Percent viability data for 82 compounds are collected here from the supplement of paper PMC8256030.

Molecules are shown by their SMILES. Where “and” joins values, the source holds several entries; their conditions need not be identical. Equal values may be shown once. Where a name gives a salt, the structure may show the parent alone. The list shows a part of the results. Repeats in this data set agree poorly, so a single value says little.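 HEK293T cells were given each compound shortly before transfection with a reporter in which red mCherry is followed by the SARS-CoV-2 frameshift element and then GFP in the −1 frame, so GFP appears only after frameshifting.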

The experiment relates to HEK293T. In words: percent viability (nuclei count) relative to control; higher = more viable cells. Particulars: 10 µM; 24 h.

Take `COc1cc(C(=O)NS(=O)(=O)c2ccccc2C)ccc1Cc1cn(C)c2ccc(NC(=O)OC3CCCC3)cc12` [Zafirlukast]: the percent viability came out at 152%.

For `CC(C)OC(=O)[C@@H]1CC2=CC(=O)CC[C@]2(C)[C@H]2CC[C@@]3(C)[C@@H](CC[C@@]34CCC(=O)O4)[C@H]12` [dicirenone], the percent viability was found to be 126%. Regarding `CN1CCc2cccc3c2[C@H]1Cc1ccc(O)c(O)c1-3` [(R)-(-)-Apomorphine·HCl], the percent viability was 338%.

Consider `CC(C)NNC(=O)COc1ccc(Cl)cc1` [iproclozide], for which the percent viability turned out to be 136%.

As to `CN(Cc1ccc(C(C)(C)C)cc1)Cc1cccc2ccccc12` [butenafine], the percent viability was determined as 152%. As for `CCCCCCCCCCCCCCCCCC(=O)OC[C@@H](O)[C@H]1OC[C@H](O)[C@H]1O` [sorbitan stearate], the percent viability came to 162%.

For the compound `CC[C@]12CN3CCc4c([nH]c5ccccc45)[C@@](C(=O)OC)(c4cc5c(cc4OC)N(C=O)[C@H]4[C@@](O)(C(=O)OC)[C@H](OC(C)=O)[C@]6(CC)C=CCN7CC[C@]54[C@@H]76)C[C@@H](C3)[C@H]1O2` [vinformide], the percent viability was 21.9%. With `CC1(C)[C@H](C(=O)O)N2C(=O)C[C@H]2S1(=O)=O` the figure was 163%; with `Cc1cc2cc3c(C)cc(=O)oc3c(C)c2o1` [trioxysalen], 135%; with `CC(NCCCCc1ccccc1)C(O)c1ccc2c(c1)CCS2` (configuration not stated) [tibalosin], 244%. As for `CN1C(C)(C)CCCC1(C)C` [pempidine], the percent viability was 221%. With `COc1cc(C(=O)NCCCCCC(=O)O)cc(OC)c1OC` [capobenic acid] the figure was 270%; with `C[N+](C)(C)CCOP(=O)(O)OP(=O)([O-])OC[C@H]1O[C@@H](n2ccc(N)nc2=O)[C@H](O)[C@@H]1O`, 150%. For `O=C(CCCN1CC=C(n2c(=O)[nH]c3ccccc32)CC1)c1ccc(F)cc1` [droperidol], the percent viability came out at 136%. With `C[C@H](C(=O)O)c1cccc(C(=O)c2ccccc2)c1` [dexketoprofen], the percent viability was 182%. For `CN(C)c1cc(NC(=O)CNC(C)(C)C)c(O)c2c1C[C@H]1C[C@H]3[C@H](N(C)C)C(=O)C(C(N)=O)=C(O)[C@@]3(O)C(=O)C1=C2O`, the percent viability stood at 169%. With `CCCCC/C=C\C/C=C\C/C=C\CCCCCCC(=O)O` the figure was 273%. As for `CC(=O)Nc1ccc(C(=O)O)cc1` [acedoben], the percent viability was found to be 213%. For `Nc1ccn([C@H]2CC[C@@H](CO)O2)c(=O)n1` [zalcitabine], the percent viability is 218% and 239%.

Turning to `CN1CCC(=C2c3ccccc3CCc3sccc32)CC1`, the percent viability was 334%.

`Cc1nc2ccccc2n1Cc1ccc(Cl)cc1` [chlormidazole]: the percent viability stood at 58.4%. Take `Nc1ccc(S(=O)(=O)NC(=O)c2ccccc2)cc1` [sulfabenzamide]: the percent viability is 133%.

In the case of `CCn1cc(C(=O)O)c(=O)c2ccc(-c3ccncc3)cc21` [rosoxacin], the percent viability came out at 314%. Take `O=C(O)c1ccccc1Nc1cccc(C(F)(F)F)c1` [flufenamic acid]: the percent viability was 178% and 267%. As for `CN1CCN(C2Cc3ccccc3Sc3ccc(Cl)cc32)CC1` (configuration not stated) [clorotepine], the percent viability was 190%. For the compound `Cc1cccc(C)c1NC(=O)C1CCCCN1C` (configuration not stated) [mepivacaine], the percent viability amounted to 192%.

Take `CC(C)Cn1cnc2c(N)nc3ccccc3c21` [imiquimod]: the percent viability was 224% and 284%.

With `COc1ccc(-c2cc(C(F)F)nn2-c2ccc(S(N)(=O)=O)cc2)cc1F` [deracoxib], the percent viability was found to be 319%.

For `Nc1c(CC(=O)O)cccc1C(=O)c1ccc(Br)cc1` [Xibrom], the percent viability was found to be 310%. For `CC(=O)N(c1onc(C)c1C)S(=O)(=O)c1ccc(N)cc1`, the percent viability was 270%.

`CCCCOc1ccc(C(=O)CCN2CCCCC2)cc1` [dyclonine]: the percent viability came out at 108%. For `CCCCOCCOC(=O)c1cccnc1` [nicoboxil], the percent viability is 147%. Regarding `Cc1cccc(C)c1NC(=O)CC12CCCN1CCC2` [pilsicainide], the percent viability was 216%. Turning to `CC(C)(C)NCC(O)COc1cc(Cl)ccc1Cl` (configuration not stated) [cloranolol], the percent viability was 270%. Consider `CCCc1nc(C)c2c(=O)nc(-c3cc(S(=O)(=O)N4CCN(CC)CC4)ccc3OCC)[nH]n12`, for which the percent viability was determined as 168%.

On to `O=C1[C@H](CC[C@H](O)c2ccc(F)cc2)[C@@H](c2ccc(O)cc2)N1c1ccc(F)cc1` [ezetimibe], for which the percent viability was 162%. For `Cc1nc2c([nH]1)-c1ccccc1N(C(=O)c1ccc(NC(=O)c3ccccc3-c3ccccc3)cc1)CC2` [conivaptan], the percent viability came to 283%. Turning to `CC(CCc1ccc(O)cc1)NCC(O)c1ccc(O)cc1` (configuration not stated), the percent viability was found to be 131%. In the case of `CCC(Cc1c(I)cc(I)c(N)c1I)C(=O)O` (configuration not stated) [iopanoic acid], the percent viability was 331%. For `CNS(=O)(=O)CCc1ccc2[nH]cc(C3CCN(C)CC3)c2c1` [naratriptan], the percent viability was found to be 273%. With `CCCCCCCCOc1ccc(C(=O)c2ccccc2)c(O)c1` [octabenzone] the figure was 202%; with `CCCCCCCCCCCCC[N+](C)(C)Cc1ccccc1`, 197%; with `CCOC(=O)[C@H]1O[C@@H]1C(=O)N[C@@H](CC(C)C)C(=O)NCCC(C)C` [aloxistatin], 206%. As for `C=C1C[C@H]2[C@@H]3C=C(C)C4=CC(=O)CC[C@]4(C)[C@H]3CC[C@]2(C)[C@@]1(OC(C)=O)C(C)=O` [Melengestrol Acetate], the percent viability is 173%. On to `COCCc1ccccn1` [metyridine], for which the percent viability is 226%. With `CC1(c2ccccc2)OC(C(=O)O)=CC1=O` (configuration not stated) [acifran] the figure was 117%.

Take `CN1CCN(c2c(F)cc3c(=O)c(C(=O)O)cn4c3c2OCN4C)CC1` [marbofloxacin]: the percent viability stood at 191%. Take `CN1C(=O)CC[C@H]1c1cccnc1` [cotinine]: the percent viability is 120%. As for `Cc1cccc(N2CC(CO)OC2=O)c1` (configuration not stated) [Toloxatone], the percent viability was 116%.

Consider `O=C(c1ccccc1)c1ccc2n1CCC2C(=O)O` (configuration not stated), for which the percent viability was 276%. As for `CC1(C)C2CCC1(CS(=O)(=O)O)C(=O)C2=Cc1ccc(C=C2C(=O)C3(CS(=O)(=O)O)CCC2C3(C)C)cc1`, the percent viability turned out to be 146%. For the compound `C1CCN2C[C@@H]3C[C@@H](CN4CCCC[C@@H]34)[C@H]2C1` [(-)-Sparteine], the percent viability is 87.7%.

For `CC(C)NCC(O)COc1ccc(CCOCC2CC2)cc1` (configuration not stated) [betaxolol], the percent viability worked out at 126%.

Take `CC(N)C12CC3CC(CC(C3)C1)C2` (configuration not stated) [rimantadine]: the percent viability was 236%.

For `Cc1scc2c1N(C(=O)CN1CCN(C)CC1)c1ccccc1NC2=O` [telenzepine], the percent viability amounted to 151%. With `Nc1ncnc2c1ncn2[C@@H]1O[C@H](CO)[C@@H](O)[C@H]1O`, the percent viability was 182%. Regarding `CCOC(=O)c1ccc(C#Cc2ccc3c(c2)C(C)(C)CCS3)nc1` [tazarotene], the percent viability was determined as 181%. Take `C=C1CC[C@H](O)C/C1=C/C=C1\CCC[C@]2(C)[C@@H]([C@H](C)CCCC(C)(C)O)CC[C@@H]12` [calcifediol]: the percent viability was 227% and 379%.

Regarding `Nc1ccc(/N=N/c2ccccc2)c(N)n1`, the percent viability stood at 186%. `CN1CCC(=C2c3ccccc3CCc3sccc32)CC1` [pizotifen]: the percent viability came to 197%. For `C[C@@H](c1ncncc1F)[C@](O)(Cn1cncn1)c1ccc(F)cc1F` [voriconazole], the percent viability turned out to be 120%. For the compound `CN[C@H]1C(=O)N[C@@H]2Cc3ccc(cc3)Oc3cc4cc(c3O[C@@H]3O[C@H](C(=O)O)[C@@H](O)[C@H](O)[C@H]3NC(=O)CCCCCCCCC(C)C)Oc3ccc(cc3Cl)[C@@H](O)[C@@H]3NC(=O)[C@H](NC(=O)[C@@H]4NC(=O)[C@@H](NC2=O)c2cc(cc(O)c2Cl)Oc2cc1ccc2O)c1ccc(O)c(c1)-c1c(O[C@H]2O[C@H](CO)[C@@H](O)[C@H](O)[C@@H]2O)cc(O)cc1[C@@H](C(=O)NCCCN(C)C)NC3=O` [Dalbavancin], the percent viability was 176%. With `COc1c2occc2cc2ccc(=O)oc12` the figure was 103%; with `COCC(=O)O[C@]1(CCN(C)CCCc2nc3ccccc3[nH]2)CCc2cc(F)ccc2[C@@H]1C(C)C` [mibefradil], 104%. Regarding `CC(=O)[C@H]1CC[C@H]2[C@@H]3CCC4=CC(=O)CC[C@]4(C)[C@H]3CC[C@]12C` [progesterone], the percent viability was 231% and 104%. With `CN1CCCN=C1/C=C/c1cccc(O)c1`, the percent viability turned out to be 174%.

For `CC1/C=C/C=C/C=C/C=C/C=C/C=C/C=C/C(OC2O[C@H](C)[C@@H](O)[C@H](N)[C@@H]2O)CC(O)C(C(=O)O)C(O)CC(=O)CC(O)CC(O)CC(O)CC(=O)CCCC(=O)CC(=O)OC1C(C)CC(C)C(O)CC(=O)c1ccc(N)cc1` (some centres not stated), the percent viability turned out to be 138%.

As to `O=C(NC[C@H]1CN(c2ccc(N3CCOCC3=O)cc2)C(=O)O1)c1ccc(Cl)s1` [Rivaroxaban], the percent viability was 279%.

`CC(N)C12CC3CC(CC(C3)C1)C2` (configuration not stated): the percent viability amounted to 27%. With `O=C1CC(c2cccc(Br)c2)C(=O)N1` (configuration not stated) [brosuximide] the figure was 257%. As for `Nc1nc(NC2CC2)c2ncn([C@H]3C=C[C@@H](CO)C3)c2n1` [abacavir], the percent viability was 317% and 129%. Take `NS(=O)(=O)c1cc(C2(O)NC(=O)c3ccccc32)ccc1Cl` (configuration not stated) [chlortalidone]: the percent viability is 68.4%.

`Cc1nnc(SCC2=C(C(=O)O)N3C(=O)[C@@H](NC(=O)Cn4cnnn4)[C@H]3SC2)s1` [cefazolin]: the percent viability was 159%. With `C[C@H](O)[C@H](O)[C@H]1CNc2nc(N)[nH]c(=O)c2N1` [Sapropterin] the figure was 234%; with `Cc1ncc2c(c1O)COC2c1ccc(Cl)cc1` (configuration not stated) [cicletanine], 43.2%; with `C[C@]12CC[C@@H]3c4ccc(O)cc4CC[C@H]3[C@@H]1CCC2=O` [estrone], 134% and 228%. With `Cc1cnc(C(=O)O)c[n+]1[O-]` [acipimox], the percent viability was 275% and 213%. With `Cc1cc(O)c(C(=O)N[C@@H](C(=O)N[C@@H]2C(=O)N3C(C(=O)O)=C(CSc4nnnn4C)CS[C@H]23)c2ccc(O)cc2)cn1` [Cefpiramide] the figure was 307%; with `CN1CCCCC1CCN1c2ccccc2Sc2ccc(S(C)(=O)=O)cc21` (configuration not stated) [sulforidazine], 296%.

Consider `N#CC[C@H](C1CCCC1)n1cc(-c2ncnc3[nH]ccc23)cn1` [Ruxolitinib], for which the percent viability amounted to 373%.

`CO[C@H]1O[C@@H]2O[C@@]3(C)CC[C@H]4[C@H](C)CC[C@@H]([C@H]1C)[C@@]24OO3` [artemether]: the percent viability is 152%. Turning to `C=CCn1c(=O)n([C@@H]2O[C@H](CO)[C@@H](O)[C@H]2O)c2nc(N)[nH]c(=O)c21` [loxoribine], the percent viability was 99.6%.
